From publication PMC6973269 (Chembiochem, 2019) come the findings set out here.

This data set in a line: general procedure: Fmoc solid-phase peptide synthesis; Rink Amide (MBHA) resin, Rink Amide NovaSyn TGR resin or ChemMatrix Rink Amide resin; HCTU/DIEA; COMU/Oxyma/DIEA for building blocks. To be noted: whole synthesis; for final HPLC purity: UV 210 nm; for isolated yield: on vendor loading.

As to Ac – G A G A S S5 E E K S5 K, the “final HPLC purity” value is 98% and the isolated yield came out at 12%.

Regarding Lau – G A G A S A R E K S K, the “final HPLC purity” value is recorded as 98% and the isolated yield is 7%.

Regarding Lau – G A G A S R E E S H K, the “final HPLC purity” value is 98% and the isolated yield is recorded as 8%.

As for Lau – G A G A S S E E K S K, the “final HPLC purity” value was 99% and the isolated yield is given as 9%.

For the substance Myr – G A G A S A E E K H K, the “final HPLC purity” value worked out at 98% and the isolated yield turned out to be 10%.

With Myr – G A G A S A R E K S K, the “final HPLC purity” value is 97% and the isolated yield is on record as 8%.

Turning to Myr – G A G A S R E E S H K, the “final HPLC purity” value was determined as 98% and the isolated yield worked out at 9%.

Take Myr – G A G A S S5 E E K S5 K: the “final HPLC purity” value came out at 99% and the isolated yield came out at 14%.

With Myr – G A R A S S E E K H K, the “final HPLC purity” value was 99% and the isolated yield came out at 8%.

On to Myr – G R G A S A E E K H K, for which the “final HPLC purity” value was 99% and the isolated yield was 11%.
